Measured values published in PubChem BioAssay AID504648 (National Center for Advancing Translational Sciences (NCATS), 2011).
Out of some 390,000 compounds screened, about 610 (0.16%) were called active. The shares of active, inactive and inconclusive entries below differ from those in the screen. The call rests on the fitted dose curve; in most records, active means well fitted inhibition curve with a large enough effect; inconclusive means small, poorly fitted or top-dose-only effect, or effect the other way, or another doubt; inactive means no such curve, though single readings can be large or run the other way. A potency beside an inconclusive call is a rough fit, not a confirmed value.

Test: Nrf2 qHTS screen for inhibitors: counterscreen for cytotoxicity
Details: A549 ARE-Fluc cells, CellTiter-Fluor viability, 18-24 h; series mostly up to 46 µM
In short: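 Cytotoxicity counterscreen: CellTiter-Fluor fluorescence was measured in A549 ARE_Fluc cells after 18-24 h of compound exposure in a concentration series. The subsequent BugLite luminescent read reports ARE-luciferase activity.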
Potency means the concentration at half of the fitted maximal effect.

Row | Compound | Potency
1 | CC1CCCN(CCCNC(=O)Cn2ncc3c([nH]c4ccccc43)c2=O)C1 (stereo not drawn) | inconclusive: 20.6 µM [activator, partial curve, poor fit]
2 | N#C/C(=C/C1=C(N2CCOCC2)C(=C/c2ccc(Cl)cc2Cl)/CC1)C(=O)Nc1ccccc1F | inconclusive: 2.91 µM [falling, partial curve, poor fit]
3 | COc1ccc(NC(=S)NCCC(c2ccccc2)c2ccccc2)c(OC)c1 | inactive
4 | CCCC(=O)NC(=S)Nc1ccc(S(=O)(=O)Nc2ccc(OCC)cc2)cc1 | active: 18.4 µM
5 | CCc1ccc(Nc2nc3ccccc3c(=O)s2)cc1 | inconclusive: 23.1 µM [falling, partial curve, poor fit]
6 | Cc1cc(N2C(=O)C(O)=C(C(=O)c3cc4ccccc4o3)C2c2cccc(Cl)c2)no1 (stereo not drawn) | inconclusive: 29.1 µM [falling, single point]
7 | Cc1ccc(CSCC(=O)Nc2cc(S(=O)(=O)N3CCOCC3)ccc2OC(C)C)cc1 | inactive
8 | CCCOc1ccc(/C=N/Nc2ccccc2[N+](=O)[O-])c(OCCC)c1 | inconclusive: 23.1 µM [falling, single point]
9 | Cc1[nH]c2ccccc2c1C1=NNC(=Nc2ccc(F)cc2)SC1 | inconclusive: 20.6 µM [falling, single point]
10 | CCc1ccc2[nH]c(=O)c(CN(Cc3ccccc3)C(=O)Nc3ccccc3OC)cc2c1 | inactive
11 | CCn1c(=S)sc2c(=O)n(CC(=O)Nc3ccccc3C(F)(F)F)c(C)nc21 | inactive
12 | CCCC(=O)N1CCN(c2ccc(NC(=O)c3cc4ccccc4o3)cc2Cl)CC1 | inconclusive: 20.6 µM [falling, single point]
13 | COc1ccc(CCNC(=O)c2ccc(Cn3c(=O)c4ccccc4n(CC(=O)C(C)(C)C)c3=O)cc2)cc1OC | inactive
14 | CN(C)C(CNC(=O)CCc1nc2cc(Cl)ccc2n(Cc2ccccc2)c1=O)c1ccccc1 (stereo not drawn) | inconclusive: 29.1 µM [falling, partial curve, poor fit]
15 | COc1cccc(N=Nc2ccc(O)c3ncccc23)c1 | inconclusive: 18.4 µM [falling, single point]
16 | Cc1ccc(-c2ccc(/C=C3\C(=O)ON=C3c3ccccc3)o2)c([N+](=O)[O-])c1 | inconclusive: 16.4 µM [falling, single point]
17 | COc1cc(OC)c2ccc(=O)oc2c1C(CCN1CCCC1)c1ccc(N(C)C)cc1 (stereo not drawn) | inconclusive: 25.9 µM [falling, partial curve, poor fit]
18 | C/C(=N\N=C(/N)SC1CC(=O)N(c2ccc(Br)cc2)C1=O)c1cccs1 (stereo not drawn) | inconclusive: 16.4 µM [falling, partial curve, poor fit]
19 | CCOC(=O)Nc1nc(-c2ccccc2)c(C(=O)c2ccccc2)s1 | inconclusive: 0.58 µM [falling, full curve]
20 | CCOc1ccc(Oc2ccc(NS(=O)(=O)c3cc(C(=O)O)ccc3Cl)cc2)cc1 | inactive
21 | COc1ccc(S(=O)(=O)Nc2ccc3oc(C)c(C(C)=O)c3c2)cc1 | inconclusive: 29.1 µM [falling, single point]
22 | O=C1CC(N2CCN(S(=O)(=O)c3ccccc3F)CC2)C(=O)N1c1ccccc1F (stereo not drawn) | inactive

Row | Compound | Potency
23 | Cc1ccc(NC(=O)N2CCN(Cc3ccc4c(c3)OCO4)CC2)cc1 | inconclusive: 29.1 µM [falling, single point]
24 | COc1cccc(/C=N/NC(=O)c2nc(-c3ccccc3)cc(-c3ccccc3)n2)c1 | inactive
25 | O=C(CCc1ccccc1)NNC(=S)NC(=O)c1ccc(Cl)cc1 | inactive
26 | CCOc1ncccc1C(=O)N1CCN(c2cc(Cl)ccc2C)CC1 | inconclusive: 1.46 µM [falling, full curve]
27 | COc1ccc(CCNC(=O)N2c3ccccc3Sc3ccccc32)cc1 | inconclusive: 20.6 µM [falling, partial curve]
28 | CCN=c1scc(C)n1/N=C/c1cc(Br)c(O)c(OC)c1 | inconclusive: 16.4 µM [falling, single point]
29 | Cc1cc2c([nH]c3ccccc32)c2c1OC(C)(C)C=C2 | inactive
30 | S=C(Nc1ccc(Nc2ccccc2)cc1)Nc1ccccn1 | inconclusive: 32.6 µM [falling, partial curve, poor fit]
31 | Cc1nc(CNS(=O)(=O)c2cccc(F)c2)cs1 | inconclusive: 4.61 µM [falling, partial curve, poor fit]
32 | O=c1ccc2cc3c4c(c2o1)CCCN4CCC3 | inconclusive: 13 µM [activator, partial curve]
33 | CCCc1cc(=O)oc2cc(C)c3c(-c4ccccc4)coc3c12 | inconclusive: 25.9 µM [activator, partial curve, poor fit]
34 | Nc1cc(-c2ccc(Br)cc2)[nH]n1 | inactive
35 | Oc1ccc(NCc2ccccc2OCc2ccc(Cl)cc2)cc1 | inactive
36 | O=S(=O)(O)c1cccc(N=Nc2c(O)ccc3ccccc23)c1 | inconclusive: 23.1 µM [falling, partial curve]
37 | O=C(CCCN1C(=O)/C(=C\c2ccco2)SC1=S)Nc1ccc(O)cc1C(=O)O | inconclusive: 20.6 µM [falling, partial curve, poor fit]
38 | CC(=O)c1nc(N2CCN(S(=O)(=O)c3ccc(C)cc3)CC2)c2ccccc2n1 | inactive
39 | CCC(=O)NC(c1ccco1)c1cc(Cl)c2c(c1O)NCCC2 (stereo not drawn) | inactive
40 | Cc1ccc(N(C(=O)c2snc(C(N)=O)c2N)C(C(=O)NC2CCCC2)c2ccc(C)o2)cc1 (stereo not drawn) | inconclusive: 23.1 µM [falling, single point]
41 | COc1cccc(CNC(=O)CN2C(=O)CSc3ccc(S(=O)(=O)N4CCCCC4)cc32)c1 | inconclusive: 29.1 µM [falling, partial curve, poor fit]
42 | CC(C)(C)c1nnc(NS(=O)(=O)c2ccc([N+](=O)[O-])cc2)s1 | inconclusive: 29.1 µM [activator, single point]
43 | CCCOc1ccc(N2C(=O)CC(N(CCc3ccc(OC)cc3)C(=O)c3ccccc3)C2=O)cc1 (stereo not drawn) | inconclusive: 23.1 µM [falling, partial curve, poor fit]

By substructure, the entries above with a tert-butyl group (2)
Row | Compound | Potency
13 | COc1ccc(CCNC(=O)c2ccc(Cn3c(=O)c4ccccc4n(CC(=O)C(C)(C)C)c3=O)cc2)cc1OC | inactive
42 | CC(C)(C)c1nnc(NS(=O)(=O)c2ccc([N+](=O)[O-])cc2)s1 | inconclusive: 29.1 µM [activator, single point]
